Strings that start with PEPTIDE1 are HELM notation: dots part the residues, brackets hold end groups and non-standard residues.
Assay: general procedure: solution-phase peptide synthesis

In the case of PEPTIDE1{[LA].R.G.D.V}$$$$V2.0, the conjugation yield (conjugation step, final yield) is reported as 14.2% and the “final LC-MS purity” value (whole synthesis, LC-MS) is reported as “exceeded 98%”.
